Results from paper PMC8895442.
Results are given in words; binding and its absence hold for the method and conditions named. Binding seen in cells or lysates may run through a third protein. Here binding means that the protein was enriched with, or labelled near, the bait; the list need not be complete.

The chains behind the UniProt entries cited, without tags or fusion partners.
UniProt Q8IWZ3: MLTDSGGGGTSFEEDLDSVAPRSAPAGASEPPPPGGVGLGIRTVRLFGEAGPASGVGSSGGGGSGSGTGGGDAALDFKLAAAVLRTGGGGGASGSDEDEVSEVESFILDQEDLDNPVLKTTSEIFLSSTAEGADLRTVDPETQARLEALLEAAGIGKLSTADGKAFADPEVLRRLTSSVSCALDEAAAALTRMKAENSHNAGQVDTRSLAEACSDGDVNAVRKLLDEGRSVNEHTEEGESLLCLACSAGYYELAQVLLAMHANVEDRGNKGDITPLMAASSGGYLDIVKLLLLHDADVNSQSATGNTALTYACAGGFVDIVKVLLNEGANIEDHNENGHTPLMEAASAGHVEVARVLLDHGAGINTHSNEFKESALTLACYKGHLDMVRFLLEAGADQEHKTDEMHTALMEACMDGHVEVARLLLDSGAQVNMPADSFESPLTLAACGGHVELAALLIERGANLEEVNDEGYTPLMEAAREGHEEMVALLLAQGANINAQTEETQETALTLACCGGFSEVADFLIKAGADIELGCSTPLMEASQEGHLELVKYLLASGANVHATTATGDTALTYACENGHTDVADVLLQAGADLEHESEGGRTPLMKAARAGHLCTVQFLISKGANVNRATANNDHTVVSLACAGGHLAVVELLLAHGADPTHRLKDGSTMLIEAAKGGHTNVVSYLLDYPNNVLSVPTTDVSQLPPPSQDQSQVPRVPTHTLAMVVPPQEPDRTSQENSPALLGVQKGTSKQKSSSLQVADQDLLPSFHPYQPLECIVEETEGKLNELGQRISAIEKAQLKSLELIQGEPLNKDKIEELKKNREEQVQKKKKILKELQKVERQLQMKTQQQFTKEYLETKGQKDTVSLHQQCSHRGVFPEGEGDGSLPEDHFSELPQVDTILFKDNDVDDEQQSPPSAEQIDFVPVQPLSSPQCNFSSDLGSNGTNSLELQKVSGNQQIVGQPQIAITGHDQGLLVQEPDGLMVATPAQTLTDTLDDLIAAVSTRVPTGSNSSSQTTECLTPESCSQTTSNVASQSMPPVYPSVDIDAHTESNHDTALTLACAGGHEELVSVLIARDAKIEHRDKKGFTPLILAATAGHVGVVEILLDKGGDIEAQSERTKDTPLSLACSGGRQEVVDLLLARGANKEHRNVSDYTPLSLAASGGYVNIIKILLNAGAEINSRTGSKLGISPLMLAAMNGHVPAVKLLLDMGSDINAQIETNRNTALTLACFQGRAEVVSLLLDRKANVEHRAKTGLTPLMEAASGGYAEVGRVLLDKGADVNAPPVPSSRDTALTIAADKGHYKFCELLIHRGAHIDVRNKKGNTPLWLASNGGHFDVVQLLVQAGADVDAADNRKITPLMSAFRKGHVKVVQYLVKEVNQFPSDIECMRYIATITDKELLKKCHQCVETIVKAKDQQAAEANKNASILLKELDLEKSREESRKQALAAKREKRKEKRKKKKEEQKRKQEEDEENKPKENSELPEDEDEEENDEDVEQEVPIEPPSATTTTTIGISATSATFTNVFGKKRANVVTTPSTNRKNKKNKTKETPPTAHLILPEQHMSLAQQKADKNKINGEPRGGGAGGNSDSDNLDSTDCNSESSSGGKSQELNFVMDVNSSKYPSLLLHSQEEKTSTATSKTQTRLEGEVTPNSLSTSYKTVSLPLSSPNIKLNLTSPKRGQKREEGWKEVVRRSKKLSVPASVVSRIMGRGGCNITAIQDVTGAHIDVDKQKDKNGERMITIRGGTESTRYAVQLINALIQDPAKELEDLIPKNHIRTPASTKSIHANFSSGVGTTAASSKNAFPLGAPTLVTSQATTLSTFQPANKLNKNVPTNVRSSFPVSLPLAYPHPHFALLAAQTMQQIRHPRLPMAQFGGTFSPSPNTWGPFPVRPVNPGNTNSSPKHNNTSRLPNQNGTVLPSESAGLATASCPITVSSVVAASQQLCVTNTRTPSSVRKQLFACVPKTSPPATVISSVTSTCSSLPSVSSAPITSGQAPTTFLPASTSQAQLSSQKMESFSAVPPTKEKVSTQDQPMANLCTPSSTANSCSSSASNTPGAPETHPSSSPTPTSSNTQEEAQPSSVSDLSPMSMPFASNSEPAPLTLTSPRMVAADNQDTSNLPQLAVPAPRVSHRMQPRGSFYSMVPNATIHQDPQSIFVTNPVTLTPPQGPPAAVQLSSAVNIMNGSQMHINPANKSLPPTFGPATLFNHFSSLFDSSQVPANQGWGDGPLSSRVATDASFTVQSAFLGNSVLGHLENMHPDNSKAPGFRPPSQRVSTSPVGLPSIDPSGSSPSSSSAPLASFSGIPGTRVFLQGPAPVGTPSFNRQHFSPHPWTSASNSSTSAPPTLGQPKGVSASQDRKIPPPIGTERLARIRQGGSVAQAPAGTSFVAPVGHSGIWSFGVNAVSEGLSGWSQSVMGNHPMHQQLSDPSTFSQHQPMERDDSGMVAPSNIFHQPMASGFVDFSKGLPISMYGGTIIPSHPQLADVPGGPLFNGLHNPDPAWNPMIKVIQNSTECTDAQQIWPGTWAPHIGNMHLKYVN

Biological target: Flag-PTEN (phosphatase and tensin homolog deleted on chromosome ten) (UniProt P60484)
Assay: affinity purification with mass spectrometry; 293T cells transfected with Flag-PTEN; PTEN immunoprecipitated with anti-PTEN antibody and protein A+G agarose at 4 °C; LC-MS/MS; IgG control; n = 1

ankyrin repeat and KH domain containing 1 (ANKHD1) (from UniProt Q8IWZ3 1-2542)
binding: binds
